Here are results for 1 molecule from publication PMC9969585.

The chains behind the UniProt entries cited, without tags or fusion partners.
UniProt P08047: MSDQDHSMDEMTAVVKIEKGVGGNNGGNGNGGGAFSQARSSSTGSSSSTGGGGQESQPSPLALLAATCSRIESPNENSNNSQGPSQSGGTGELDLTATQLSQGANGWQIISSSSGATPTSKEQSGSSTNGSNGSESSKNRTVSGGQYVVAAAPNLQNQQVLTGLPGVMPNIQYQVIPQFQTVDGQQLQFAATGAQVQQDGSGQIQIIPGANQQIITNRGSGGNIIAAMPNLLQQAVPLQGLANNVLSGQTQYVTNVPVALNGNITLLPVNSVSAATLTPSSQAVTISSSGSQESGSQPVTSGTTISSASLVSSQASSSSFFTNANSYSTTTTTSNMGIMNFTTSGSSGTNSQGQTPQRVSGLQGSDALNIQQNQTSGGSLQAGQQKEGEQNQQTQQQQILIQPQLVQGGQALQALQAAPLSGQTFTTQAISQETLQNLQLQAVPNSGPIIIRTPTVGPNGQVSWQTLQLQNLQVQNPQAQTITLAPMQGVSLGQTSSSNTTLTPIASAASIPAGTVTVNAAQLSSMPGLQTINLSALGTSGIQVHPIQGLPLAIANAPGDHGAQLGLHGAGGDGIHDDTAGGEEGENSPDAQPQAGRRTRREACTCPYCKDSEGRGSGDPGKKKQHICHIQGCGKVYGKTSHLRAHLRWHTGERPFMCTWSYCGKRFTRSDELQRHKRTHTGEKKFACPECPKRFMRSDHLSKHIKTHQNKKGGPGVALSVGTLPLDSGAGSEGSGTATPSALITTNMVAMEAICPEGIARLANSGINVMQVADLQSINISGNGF

No constants are given. Whether binding was seen depends on the method and setting. Binding seen in cells or lysates may run through a third protein. Some binding calls cover weakened binding; strength is not graded here. Where a sequence is shown, tags or fusion partners need not be part of it.

The target in the test is HA-tagged Sp1 (UniProt P08047). The test is described as follows: co-IP; H1299 cells co-transfected with pcDNA3.0-Flag-SKA2 and pcDNA3.0-HA-Sp1; whole cell extracts precleared with Protein A/G Magnetic Beads, incubated with anti-HA antibody or normal rabbit IgG overnight at 4 °C; immunoblot with anti-Flag antibody.

B1: Flag-tagged SKA2 (spindle and kinetochore associated complex subunit 2) (protein, UniProt Q8WVK7 1-121)
chain: MEAEVDKLELMFQKAESDLDYIQYRLEYEIKTNHPDSASEKNPVTLLKELSVIKSRYQTLYARFKPVAVEQKESKSRICATVKKTMNMIQKLQKQTDLELSPLTKEEKTAAEQFKFHMPDL
With B1, the binding result is given as “binds”.
